# Where “and” joins values, the source holds several entries; their conditions need not be identical. Identical values can stand only once. Counter-ions that a name gives are not always drawn. The list shows a part of the results. Most values lie at the level of the controls, where differences are scatter.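 Differential scanning fluorimetry gave melting temperatures in a one-replicate pilot screen of a library of approved drugs plus clinical or known-target compounds. Hits increasing melting point at least 2 °C were the strongest stabilizers, while negative shifts signify destabilization.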
# Tested on: SARS-CoV-2 main protease (Mpro, nsp5)
# Experiment: thermal shift ΔTm of Mpro relative to plate average Tm; higher = stronger thermal stabilization of Mpro (binding)
# Settings: 10 µM; protein concentration 1 µM
row,Structure (SMILES),thermal shift ΔTm of Mpro
1,O=c1cc(N2CCOCC2)oc2c(-c3ccccc3)cccc12,0.144 °C
2,COc1cccc(-c2cc(F)ccc2C2Cc3nc(N)nc(C)c3C(=O)N2)n1 (configuration not stated),-0.0627 °C
3,CCOC(N)=O [Urethane],-0.0329 °C
4,O=C(O)CCC(=O)c1ccc(-c2ccccc2)cc1 [Fenbufen],0.0969 °C
5,CN1CCN2c3ccccc3Cc3ccccc3C2C1 (configuration not stated) [Mianserin HCl],0.163 °C
6,CCCCCCCCOc1ccccc1C(=O)Nc1ccc(C(=O)OCC[N+](C)(CC)CC)cc1 [Otilonium Bromide],-0.417 °C
7,CN1CCCN(C(=O)c2cccc(-c3ccc(/C=C4/C(=O)Nc5ccc(Cl)cc54)o3)c2)CC1,0.144 °C
8,CCCCc1ncc(/C=C(\Cc2cccs2)C(=O)O)n1Cc1ccc(C(=O)O)cc1 [Eprosartan Mesylate],-0.175 °C
9,CN(C)CCc1c[nH]c2ccc(CS(=O)(=O)N3CCCC3)cc12 [Almotriptan Malate],0.157 °C
10,Cn1nc(C(C)(C)C)cc1C(=O)N[C@@H](Cc1cccc(Cl)c1)C(=O)NCC#N [Cathepsin Inhibitor 1],-0.0687 °C
11,CCc1ccc(OCc2ccccc2C(=O)Nc2ccc3nc(C)cc(N)c3c2)cc1,0.0056 °C
12,CN(c1ncccc1CNc1nc(Nc2ccc3c(c2)CC(=O)N3)ncc1C(F)(F)F)S(C)(=O)=O,-0.155 °C and -0.0747 °C and -0.221 °C
13,CC(CNC(=O)c1cccnc1)NC(=O)c1cccnc1 (configuration not stated) [Nicaraven],0.134 °C
14,O=C1C=CC[C@@H]2[C@H]3CCCN4CCC[C@@H](CN12)[C@@H]34 [Sophocarpine],-0.0961 °C
15,Clc1cccc(CN=C2Nc3ccccc3NC23CCNCC3)c1 [Liproxstatin-1],-0.133 °C
16,O=C(Nc1ccccc1)N1CCN(c2nc(-c3ccccc3)ns2)CC1,-0.0196 °C
17,CCCC(=O)NCCc1csc(-c2ccc(Cl)cc2)n1 [Azoramide],0.309 °C
18,COc1ccc2[nH]cc(/C=C3\C(=O)Nc4ccc(NC(=O)CCN5CCCCC5)cc43)c2c1,0.0271 °C
19,O=C(NC(Cc1cc(=O)[nH]c2ccccc12)C(=O)O)c1ccc(Cl)cc1 (configuration not stated) [Rebamipide],0.0723 °C
20,COc1ccc(S(=O)(=O)N2CCCN(S(=O)(=O)c3ccc(OC)c(OC)c3)CC2)cc1OC,-0.0481 °C
21,CCCCCCCCCCCCCCCc1cccc(O)c1C(=O)O [Anacardic Acid],0.444 °C
22,O=C(NNc1nc2cc(F)ccc2n2cccc12)c1cnccn1,0.0113 °C
23,CC(C)c1cc(C(C)C)c(CC(=O)NS(=O)(=O)Oc2c(C(C)C)cccc2C(C)C)c(C(C)C)c1 [Avasimibe],-0.871 °C
24,COC(=O)/C=C/C(=O)OC [Dimethyl Fumarate],-0.0799 °C

row,Structure (SMILES),thermal shift ΔTm of Mpro
1,CCOC(=O)C1=C(C)NC(C)=C(C(=O)OC)C1c1cccc(Cl)c1Cl (configuration not stated) [Felodipine],-0.123 °C
2,C[C@@]12C[C@@]3(O)O[C@@H](O1)[C@]1(COC(=O)c4ccccc4)[C@@H]3C[C@]12O[C@@H]1O[C@H](COC(=O)c2ccccc2)[C@@H](O)[C@H](O)[C@H]1O [Benzoylpaeoniflorin],-0.00132 °C
3,CO[C@H]1C[C@H](O[C@@H]2/C(C)=C/C[C@@H]3C[C@@H](C[C@]4(CC[C@H](C)[C@@H](C5CCCCC5)O4)O3)OC(=O)[C@@H]3C=C(C)/C(=N/O)[C@H]4OC/C(=C\C=C\[C@@H]2C)[C@]43O)O[C@@H](C)[C@@H]1O [Selamectin],-0.418 °C
4,CN1CCN(Cc2ccc(-c3cnc4[nH]cc(-c5ccc6[nH]ccc6c5)c4c3)cc2)CC1,-0.199 °C
5,CC1(C)CC[C@]2(NC(=O)C(C)(F)F)CC[C@]3(C)[C@H](C(=O)C=C4[C@@]5(C)C=C(C#N)C(=O)C(C)(C)[C@@H]5CC[C@]43C)[C@@H]2C1 [Omaveloxolone (RTA-408)],-0.983 °C
6,O=C1c2c(O)ccc(O)c2C(=O)c2c(NCCNCCO)ccc(NCCNCCO)c21 [Mitoxantrone],0.558 °C
7,O=C1c2c(O)ccc(O)c2C(=O)c2c(NCCNCCO)ccc(NCCNCCO)c21 [Mitoxantrone HCl],0.441 °C
8,CCOC(=O)c1ccc(NC2CCCCC2)c(N)c1 [Ferrostatin-1 (Fer-1)],-0.142 °C
9,CC(=O)O[C@H]1C[C@@H]2CC[C@@H]3[C@H](CC[C@@]4(C)[C@H]3C[C@H]([N+]3(C)CCCCC3)[C@@H]4OC(C)=O)[C@@]2(C)C[C@@H]1[N+]1(C)CCCCC1 [Pancuronium dibromide],0.0124 °C
10,CC(C)c1cnn2c(NCc3ccccc3)cc(NCCCCCCN)nc12,-0.122 °C and -0.157 °C
11,Cc1ccc(/N=C/N(C)/C=N/c2ccc(C)cc2C)c(C)c1 [Amitraz],-0.117 °C
12,COc1cc2nc(N3CCCN(C)CC3)nc(NC3CCN(Cc4ccccc4)CC3)c2cc1OC,-0.19 °C
13,N[C@@H](CCCCNC(=O)C(F)(F)F)C(=O)O [N-6-Trifluoroacetyl-L-lysine],0.233 °C
14,"O=C(c1ccc(F)c(F)c1Nc1ccc(I)cc1F)N1CC(O)([C@@H]2CCCCN2)C1 [Cobimetinib (GDC-0973, RG7420)]",-0.22 °C
15,O=c1c2ccccc2[se]n1-c1ccccc1 [Ebselen],-9.09 °C
16,CN1CCN(c2ccc3[nH]c(-c4ccc5[nH]c(-c6ccc(O)cc6)nc5c4)nc3c2)CC1,0.498 °C
17,Cc1c(C(=O)N2CCOc3ccc(-c4ccc(N)nc4)cc3C2)ccc(S(C)(=O)=O)c1F,-0.127 °C
18,c1ccc2c(c1)Nc1ccccc1S2 [Phenothiazine],0.432 °C
19,CC(NCCc1ccc(O)cc1)C(O)c1ccc(O)cc1 (configuration not stated) [Ritodrine HCl],0.262 °C
20,C[N+](C)(CCOc1ccccc1)Cc1ccccc1.O=C([O-])c1cc2ccccc2cc1O [Bephenium Hydroxynaphthoate],0.25 °C
21,NC1CCN(c2c(F)cc3c(=O)c(C(=O)O)cn(C4CC4)c3c2Cl)C1 (configuration not stated) [Clinafloxacin],0.00239 °C
22,NC[C@@H]1O[C@H](O[C@H]2[C@@H](O)[C@H](O[C@@H]3[C@@H](O)[C@H](N)C[C@H](N)[C@H]3O[C@H]3O[C@H](CN)[C@@H](O)[C@H](O)[C@H]3N)O[C@@H]2CO)[C@H](N)[C@@H](O)[C@@H]1O [Neomycin Sulphate B],-0.0878 °C
23,CC(C)(O)CC(=O)NCCn1ccc2ncnc(Nc3ccc(Oc4cccc(C(F)(F)F)c4)c(Cl)c3)c21,0.711 °C
